Values from PubChem BioAssay AID1671195 (Yale University, 2021)
Aim: 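Knockdowns that increase or decrease uptake of fluorescent LDL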 (primary screen). System: human Huh7 hepatoma cells. Reagent: siRNA pool against human genes, 18 nM. Time to read-out: about 2 to 2.5 days of knockdown, then 8 h LDL uptake. Conditions: DiI-labelled LDL at 30 µg/ml for 8 h, in lipoprotein-deficient serum medium. Read-out: 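Fluorescent LDL signal imaged in cells, scaled to the plate median, robust z-score for each replicate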. Reading the numbers: robust z-score: higher = more LDL uptake after knockdown. Hit rule: 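Active when two or more replicates show a robust z-score above 2 or below -2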.
The deposit covers about 22,000 reagents; this is an unselected part. Over the whole deposit, about 1,510 (6.9%) are marked active. 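Active includes knockdowns raising or lowering LDL uptake; positive z-scores mean more uptake, negative mean less.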 The numbers tell different reagents against one gene apart.

The opening 3 entries, ahead of the listing:
gene | reagent no. | robust z-score, replicate 1 | robust z-score, replicate 2 | robust z-score, replicate 3 | call
KIAA2012 | 1 | 1.27 | 1.29 | 1.27 | inactive
KIAA2012 | 2 | 2.21 | 0.398 | 0.753 | inactive
CBX3 (chromobox 3) | 1 | -0.138 | 0.226 | -0.512 | inactive

The listing, repeating the preview:
gene | reagent no. | robust z-score, replicate 1 | robust z-score, replicate 2 | robust z-score, replicate 3 | call
KIAA2012 | 1 | 1.27 | 1.29 | 1.27 | inactive
KIAA2012 | 2 | 2.21 | 0.398 | 0.753 | inactive
CBX3 (chromobox 3) | 1 | -0.138 | 0.226 | -0.512 | inactive
C7orf57 (chromosome 7 open reading frame 57) | 1 | -0.199 | -0.673 | -0.79 | inactive
SIPA1L1 (signal induced proliferation associated 1 like 1) | 1 | 0.709 | 1.29 | 1.2 | inactive
CCSER2 (coiled-coil serine rich protein 2) | 1 | -1.4 | 0.777 | -0.0344 | inactive
QSER1 (glutamine and serine rich 1) | 1 | -0.965 | -1.1 | -0.704 | inactive
OR52A1 (olfactory receptor family 52 subfamily A member 1) | 1 | 4.5 | 2.82 | 4.72 | active
JPH1 (junctophilin 1) | 1 | -0.729 | 0.19 | 0.503 | inactive
C19orf12 (chromosome 19 open reading frame 12) | 1 | 0.32 | 0.404 | 0.681 | inactive
GOLGA2P5 (GOLGA2 pseudogene 5) | 1 | -0.549 | 0.558 | -0.564 | inactive
NEDD8 (NEDD8 ubiquitin like modifier) | 1 | -1.22 | 0.129 | -0.637 | inactive
SNTN (sentan, cilia apical structure protein) | 1 | -1.47 | -1.15 | 0.16 | inactive
ASB15 (ankyrin repeat and SOCS box containing 15) | 1 | 0.0542 | -0.323 | -0.84 | inactive
POLR3D (RNA polymerase III subunit D) | 1 | 0.537 | -1.11 | 0.483 | inactive
GRHPR (glyoxylate and hydroxypyruvate reductase) | 1 | -1.03 | -0.0875 | -2.46 | inactive
EVPLL (envoplakin like) | 1 | 0.234 | 0.233 | 0.325 | inactive
SPOCK2 | 1 | -0.978 | -0.0694 | -0.578 | inactive
LOC387854 (retired record) | 1 | 0.186 | -0.563 | 0.874 | inactive
MSMB (microseminoprotein beta) | 1 | -0.355 | -0.245 | 0.0374 | inactive
GGA3 | 1 | 0.632 | 0.262 | 0.676 | inactive
RPA2 (replication protein A2) | 1 | 0.696 | 0.38 | 0.969 | inactive
BAZ2B (bromodomain adjacent to zinc finger domain 2B) | 1 | -1.79 | -2.13 | -1.74 | inactive
ABCA15P (ATP binding cassette subfamily A member 15, pseudogene) | 1 | -0.000289 | -0.383 | -0.561 | inactive
ZNF320 (zinc finger protein 320) | 1 | 0.935 | -0.157 | 0.759 | inactive
MRPL19 (mitochondrial ribosomal protein L19) | 1 | -0.16 | 1.61 | 0.0575 | inactive
TSPAN1 (tetraspanin 1) | 1 | 1.54 | 1 | 1.31 | inactive
OR4A15 (olfactory receptor family 4 subfamily A member 15) | 1 | 2.59 | 2.83 | 2.85 | active
LINC02901 (long independently transcribed non-coding RNA 2901) | 1 | 0.496 | 0.497 | -0.245 | inactive
LOC442654 (retired record) | 1 | -0.199 | -0.331 | -0.179 | inactive
HAGH (hydroxyacylglutathione hydrolase) | 1 | -0.703 | -1.32 | -0.983 | inactive
PITX1 (paired like homeodomain 1) | 1 | 0.75 | 0.0796 | 1.63 | inactive
LOC440677 (retired record) | 1 | 0.448 | 0.261 | 0.374 | inactive
KLHDC8A (kelch domain containing 8A) | 1 | -0.241 | -0.506 | -0.954 | inactive
NSG2 (neuronal vesicle trafficking associated 2) | 1 | -1.95 | -1.99 | -1.12 | inactive
PDHX (pyruvate dehydrogenase complex component X) | 1 | -1.19 | -1.67 | -0.994 | inactive
CLSPN (claspin) | 1 | 0.41 | -0.171 | -0.208 | inactive
CYP11A1 (cytochrome P450 family 11 subfamily A member 1) | 1 | 0.454 | 0.331 | 0.32 | inactive
F13B (coagulation factor XIII B chain) | 1 | -0.547 | 0.529 | -0.259 | inactive
ZNF74 (zinc finger protein 74) | 1 | -1.31 | -1.13 | -0.0697 | inactive
LOC729995 | 1 | -1.16 | -0.96 | -1.1 | inactive
CNTN4 (contactin 4) | 1 | -1.01 | -1.73 | -1.55 | inactive
LOC440978 (retired record) | 1 | -0.0375 | 0.000677 | 0.00396 | inactive
KCNG4 | 1 | 1.36 | 1.43 | 1.19 | inactive
ABHD11 (abhydrolase domain containing 11) | 1 | -0.71 | -0.796 | -0.727 | inactive
RGS3 (regulator of G protein signaling 3) | 1 | 3.88 | 2.36 | 2.52 | active
MMADHC (metabolism of cobalamin associated D) | 1 | 0.38 | 0.367 | -1.62 | inactive
LOC440982 | 1 | -0.273 | -0.0462 | 0.0197 | inactive
LOC440919 (retired record) | 1 | 2.57 | 2.69 | 2.74 | active
CRB1 (crumbs cell polarity complex component 1) | 1 | 0.751 | 1.48 | 0.645 | inactive
CRNKL1 (crooked neck pre-mRNA splicing factor 1) | 1 | -0.538 | 0.431 | 1.12 | inactive
MIEF1 (mitochondrial elongation factor 1) | 1 | -2.04 | -2.47 | -2.06 | active
DNAJC18 (DnaJ heat shock protein family (Hsp40) member C18) | 1 | 2.69 | 3.53 | 3.22 | active
C5orf22 (chromosome 5 open reading frame 22) | 1 | 0.93 | 1.41 | 2.11 | inactive
C2CD2 (C2 calcium dependent domain containing 2) | 1 | -0.377 | -1.82 | -1.03 | inactive
FANCD2OS (FANCD2 opposite strand) | 1 | 0.295 | 1.22 | 1.77 | inactive
TAFA4 (TAFA chemokine like family member 4) | 1 | 0.409 | -0.356 | 0.443 | inactive
FAM230C (family with sequence similarity 230 member C) | 1 | 0.713 | 1.57 | 3.03 | inactive
SLAMF8 (SLAM family member 8) | 1 | 0.658 | -0.336 | -0.0476 | inactive
LOC440445 (retired record) | 1 | -0.256 | -0.897 | -0.546 | inactive
LTB4R (leukotriene B4 receptor) | 1 | -0.314 | -0.553 | 0.373 | inactive
DPH7 (diphthamide biosynthesis 7) | 1 | 2.35 | 0.442 | 0.308 | inactive
LOC440937 (retired record) | 1 | -0.134 | 0.644 | 0.394 | inactive
SLC60A2 | 1 | -0.791 | -0.406 | -0.912 | inactive
GIMAP6 (GTPase, IMAP family member 6) | 1 | -2.57 | -2.26 | -1.96 | active
SPRY4 (sprouty RTK signaling antagonist 4) | 1 | 0.856 | 0.985 | -0.21 | inactive
IQCE (IQ motif containing E) | 1 | 1.18 | 0.11 | 1.07 | inactive
FGD1 (FYVE, RhoGEF and PH domain containing 1) | 1 | -1.51 | -0.906 | -1.08 | inactive
